# Measured values as given in publication PMC9829398 (Plant Biotechnology Journal, 2022).
# System: Arabidopsis Col‐0 and fer‐4 seedlings
# Assay: Growth of Arabidopsis seedlings (root length, shoot fresh weight)
# Conditions: Col-0 vs fer-4, 5 μM for 3 days
smiles,measurement,value
CN[C@@H]1C[C@H]2O[C@@](C)([C@@H]1OC)n1c3ccccc3c3c4c(c5c6ccccc6n2c5c31)C(=O)NC4 [Staurosporine],Dependence on FER of the effect on root and shoot growth,partly dependent on FER
